# Test results taken from US20120213826A1, “Use of Pro-Inflammatory Compounds for Promoting Bone Formation” (Imperial Innovations Limited, priority 2009, published 2012).
# Test system: muscle-derived stromal cells (MDSC)
# Assay: MDSC migration through a transwell membrane
# Format: cell-based, human
# Details: Example 3; FIG. 27B versus FIG. 26D
# Procedure: Migration of 1×10^4 MDSC through an 8 μm pore transwell membrane over 36 hours, in response to fracture supernatant with the addition of AbTNF-α, AbIL-6 and AbIL-1β. The IgG^1 immunoglobulin was used as the antibody control. B: Migration in response to rhTNF-α, rhIL-6 and rhIL-1β in human serum-containing media. Results represent change in cell number, expressed as a percentage of the supernatant, or media only control. Each experiment was performed 3 times (n=3) using 3 fracture supernatants (in A). Results represent mean of 3 experiments ±SEM. *: P<0.05; **: P<0.01; ***: P<0.001; 1-way ANOVA with Bonferroni's multiple comparison test.
# MDSC must be recruited to the fracture site from adjacent muscle. Next we assessed the efficacy of the pro-inflammatory cytokines in attracting MDSC in vitro using a transwell assay. 1×10^4 MDSC were seeded onto a 8 μm transwell membrane in serum free media. […]
# 500 μl serum free media was added to each well of a 24 well plate. […] The number of cells present on the underside of the transwell membrane in any random field was counted 3 times and the mean calculated. Cell migration was calculated against the supernatant or human serum-containing (control) media and the number expressed as a percentage relative to the control media.
row,Substance,optimal concentration for migration relative to optimal concentration for osteogenic differentiation / highest ALP expression (fold less) [fold]
1,"IL-6: pro-inflammatory cytokine, recombinant human IL-6",1000
2,TNFα,1000
